# Test results published in patent US20230392157.
# The exact form of at least one protein or probe is not confirmed.
# Key:
# Experiment in all cases: binding assay
# thrombin = conditions: purified native protein, protein details: Sigma-Aldrich Cat No. T6884, single-stranded DNA
# [1] = biological target: platelet derived growth factor (PDGF) (UniProt P01127); conditions: n positions abasic, alpha-HL nanopore, 1 M KCl, 10 mM Tris pH 7.5, purified recombinant protein, protein details: Biorbyt Cat No. orb80544, single-stranded DNA
# streptavidin = streptavidin (UniProt P22629); conditions: alpha-HL nanopore; 5 nM streptavidin, 1 uM probe; 625 mM NaCl, 100 mM HEPES, ferro/ferricyanide pH 8.0; purified native protein; protein details: Sigma Aldrich; single-stranded DNA
# [2] = n positions abasic, alpha-HL nanopore, same experiment carried out, individual result not shown, variant of 5A15xA10_TBA (5A15x10A_TBA)
# [3] = n positions abasic, alpha-HL nanopore, 1 M KCl, 10 mM Tris pH 7.5, variant of 5A15xA10_TBA (5A15x10A_TBA)
sequence,measurement,setting,value
AAAAAAAAAAAAAAAAAGGTTGGTGTGGTTGG [13x17A_TBA],binding result,thrombin; [2],binds
AAAAAAAAAAAGGTTGGTGTGGTTGG [19x11A_TBA],binding result,thrombin; [3],binds
AAAAAAAACAGGCTACGGCACGTAGAGCATCACCATGATCCTG [17x8A_PDGF],binding result,"[1]; also in 20% rabbit blood, shorter binding events than thrombin",binds
AAAAAAAAAAAAAAAGGTTGGTGTGGTTGG [15x15A_TBA],binding result,"thrombin; n positions abasic, alpha-HL nanopore, 1 M KCl, 10 mM (Ex 9: 25 mM) Tris pH 7.5, variant of 5A15xA10_TBA (5A15x10A_TBA)",binds
AAAAAAAAAGGTTGGTGTGGTTGG [21x9A_TBA],binding result,thrombin; [2],binds
AAAAAAAGGTTGGTGTGGTTGG [23x7A_TBA],binding result,thrombin; [2],binds
AAAAAAAAAAAAAAAAAAAGGTTGGTGTGGTTGG [11x19A_TBA],binding result,thrombin; [2],binds
AAAAAAAAACAAAAAAAAAAAAAAAAAAAAAGGTTGGTGTGGTTGGAAAAAAAAAAAAAAACAAAAAAAAAAAAAAACAAAAAAAAAAAAA [15x15A_TBA_3'CholTEG],binding result,"thrombin; 3' cholesterol TEG, n positions abasic, alpha-HL nanopore, 100 pM probe, 100 nM thrombin, 1 M KCl, 10 mM Tris pH 7.5, variant of 15x15A_TBA",binds
CTATACTCCACTTTGCTATTTCTCGGTTCCTTCACGCGCCGATCGCAGGCTGATGAATTGTTT [strep probe 1],binding result,streptavidin,binds
AAAAAAAAAAAAAAAGGTTGGTGTGGTTGG [5A15xA10_TBA (5A15x10A_TBA)],binding result,"thrombin; n positions 6-20 abasic, alpha-HL nanopore current block, 1 M KCl, 10 mM Tris pH 7.5, concentration dependent",binds
CAGGCTACGGCACGTAGAGCATCACCATGATCCTG [25x_PDGF],binding result,"[1]; concentration dependent 10 nM-1 uM, variant of 17x8A_PDGF",binds
AAAAAAAAAAAAAGGTTGGTGTGGTTGG [17x13A_TBA],binding result,thrombin; [3],binds
